B1: CDC40 (protein, UniProt O60508 1-579, looked up)
Pre-mRNA-processing factor 17: MSAAIAALAASYGSGSGSESDSDSESSRCPLPAADSLMHLTKSPSSKPSLAVAVDSAPEVAVKEDLETGVHLDPAVKEVQYNPTYETMFAPEFGPENPFRTQQMAAPRNMLSGYAEPAHINDFMFEQQRRTFATYGYALDPSLDNHQVSAKYIGSVEEAEKNQGLTVFETGQKKTEKRKKFKENDASNIDGFLGPWAKYVDEKDVAKPSEEEQKELDEITAKRQKKGKQEEEKPGEEKTILHVKEMYDYQGRSYLHIPQDVGVNLRSTMPPEKCYLPKKQIHVWSGHTKGVSAVRLFPLSGHLLLSCSMDCKIKLWEVYGERRCLRTFIGHSKAVRDICFNTAGTQFLSAAYDRYLKLWDTETGQCISRFTNRKVPYCVKFNPDEDKQNLFVAGMSDKKIVQWDIRSGEIVQEYDRHLGAVNTIVFVDENRRFVSTSDDKSLRVWEWDIPVDFKYIAEPSMHSMPAVTLSPNGKWLACQSMDNQILIFGAQNRFRLNKKKIFKGHMVAGYACQVDFSPDMSYVISGDGNGKLNIWDWKTTKLYSRFKAHDKVCIGAVWHPHETSKVITCGWDGLIKLWD
B2: TRIM24 (protein, UniProt O15164 1-1050, looked up)
Transcription intermediary …: MEVAVEKAVAAAAAASAAASGGPSAAPSGENEAESRQGPDSERGGEAARLNLLDTCAVCHQNIQSRAPKLLPCLHSFCQRCLPAPQRYLMLPAPMLGSAETPPPVPAPGSPVSGSSPFATQVGVIRCPVCSQECAERHIIDNFFVKDTTEVPSSTVEKSNQVCTSCEDNAEANGFCVECVEWLCKTCIRAHQRVKFTKDHTVRQKEEVSPEAVGVTSQRPVFCPFHKKEQLKLYCETCDKLTCRDCQLLEHKEHRYQFIEEAFQNQKVIIDTLITKLMEKTKYIKFTGNQIQNRIIEVNQNQKQVEQDIKVAIFTLMVEINKKGKALLHQLESLAKDHRMKLMQQQQEVAGLSKQLEHVMHFSKWAVSSGSSTALLYSKRLITYRLRHLLRARCDASPVTNNTIQFHCDPSFWAQNIINLGSLVIEDKESQPQMPKQNPVVEQNSQPPSGLSSNQLSKFPTQISLAQLRLQHMQQQVMAQRQQVQRRPAPVGLPNPRMQGPIQQPSISHQQPPPRLINFQNHSPKPNGPVLPPHPQQLRYPPNQNIPRQAIKPNPLQMAFLAQQAIKQWQISSGQGTPSTTNSTSSTPSSPTITSAAGYDGKAFGSPMIDLSSPVGGSYNLPSLPDIDCSSTIMLDNIVRKDTNIDHGQPRPPSNRTVQSPNSSVPSPGLAGPVTMTSVHPPIRSPSASSVGSRGSSGSSSKPAGADSTHKVPVVMLEPIRIKQENSGPPENYDFPVVIVKQESDEESRPQNANYPRSILTSLLLNSSQSSTSEETVLRSDAPDSTGDQPGLHQDNSSNGKSEWLDPSQKSPLHVGETRKEDDPNEDWCAVCQNGGELLCCEKCPKVFHLSCHVPTLTNFPSGEWICTFCRDLSKPEVEYDCDAPSHNSEKKKTEGLVKLTPIDKRKCERLLLFLYCHEMSLAFQDPVPLTVPDYYKIIKNPMDLSTIKKRLQEDYSMYSKPEDFVADFRLIFQNCAEFNEPDSEVANAGIKLENYFEELLKNLYPEKRFPKPEFRNESEDNKFSDDSDDDFVQPRKKRLKSIEERQLLK
B3: VDAC2 (protein, UniProt P45880 2-294, looked up)
Non-selective voltage-gated …: ATHGQTCARPMCIPPSYADLGKAARDIFNKGFGFGLVKLDVKTKSCSGVEFSTSGSSNTDTGKVTGTLETKYKWCEYGLTFTEKWNTDNTLGTEIAIEDQICQGLKLTFDTTFSPNTGKKSGKIKSSYKRECINLGCDVDFDFAGPAIHGSAVFGYEGWLAGYQMTFDSAKSKLTRNNFAVGYRTGDFQLHTNVNDGTEFGGSIYQKVCEDLDTSVNLAWTSGTNCTRFGIAAKYQLDPTASISAKVNNSSLIGVGYTQTLRPGVKLTLSALVDGKSINAGGHKVGLALELEA
B4: NSD2 (protein, UniProt O96028 1-1365, looked up)
Histone-lysine …: MEFSIKQSPLSVQSVVKCIKMKQAPEILGSANGKTPSCEVNRECSVFLSKAQLSSSLQEGVMQKFNGHDALPFIPADKLKDLTSRVFNGEPGAHDAKLRFESQEMKGIGTPPNTTPIKNGSPEIKLKITKTYMNGKPLFESSICGDSAADVSQSEENGQKPENKARRNRKRSIKYDSLLEQGLVEAALVSKISSPSDKKIPAKKESCPNTGRDKDHLLKYNVGDLVWSKVSGYPWWPCMVSADPLLHSYTKLKGQKKSARQYHVQFFGDAPERAWIFEKSLVAFEGEGQFEKLCQESAKQAPTKAEKIKLLKPISGKLRAQWEMGIVQAEEAASMSVEERKAKFTFLYVGDQLHLNPQVAKEAGIAAESLGEMAESSGVSEEAAENPKSVREECIPMKRRRRAKLCSSAETLESHPDIGKSTPQKTAEADPRRGVGSPPGRKKTTVSMPRSRKGDAASQFLVFCQKHRDEVVAEHPDASGEEIEELLRSQWSLLSEKQRARYNTKFALVAPVQAEEDSGNVNGKKRNHTKRIQDPTEDAEAEDTPRKRLRTDKHSLRKRDTITDKTARTSSYKAMEAASSLKSQAATKNLSDACKPLKKRNRASTAASSALGFSKSSSPSASLTENEVSDSPGDEPSESPYESADETQTEVSVSSKKSERGVTAKKEYVCQLCEKPGSLLLCEGPCCGAFHLACLGLSRRPEGRFTCSECASGIHSCFVCKESKTDVKRCVVTQCGKFYHEACVKKYPLTVFESRGFRCPLHSCVSCHASNPSNPRPSKGKMMRCVRCPVAYHSGDACLAAGCSVIASNSIICTAHFTARKGKRHHAHVNVSWCFVCSKGGSLLCCESCPAAFHPDCLNIEMPDGSWFCNDCRAGKKLHFQDIIWVKLGNYRWWPAEVCHPKNVPPNIQKMKHEIGEFPVFFFGSKDYYWTHQARVFPYMEGDRGSRYQGVRGIGRVFKNALQEAEARFREIKLQREARETQESERKPPPYKHIKVNKPYGKVQIYTADISEIPKCNCKPTDENPCGFDSECLNRMLMFECHPQVCPAGEFCQNQCFTKRQYPETKIIKTDGKGWGLVAKRDIRKGEFVNEYVGELIDEEECMARIKHAHENDITHFYMLTIDKDRIIDAGPKGNYSRFMNHSCQPNCETLKWTVNGDTRVGLFAVCDIPAGTELTFNYNLDCLGNEKTVCRCGASNCSGFLGDRPKTSTTLSSEEKGKKTKKKTRRRRAKGEGKRQSEDECFRCGDGGQLVLCDRKFCTKAYHLSCLGLGKRPFGKWECPWHHCDVCGKPSTSFCHLCPNSFCKEHQDGTAFSCTPDGRSYCCEHDLGAASVRSTKTEKPPPEPGKPKGKRRRRRGWRRVTEGK
B5: NAT10 (protein, UniProt Q9H0A0 1-1025, looked up)
RNA cytidine acetyltransferase: MHRKKVDNRIRILIENGVAERQRSLFVVVGDRGKDQVVILHHMLSKATVKARPSVLWCYKKELGFSSHRKKRMRQLQKKIKNGTLNIKQDDPFELFIAATNIRYCYYNETHKILGNTFGMCVLQDFEALTPNLLARTVETVEGGGLVVILLRTMNSLKQLYTVTMDVHSRYRTEAHQDVVGRFNERFILSLASCKKCLVIDDQLNILPISSHVATMEALPPQTPDESLGPSDLELRELKESLQDTQPVGVLVDCCKTLDQAKAVLKFIEGISEKTLRSTVALTAARGRGKSAALGLAIAGAVAFGYSNIFVTSPSPDNLHTLFEFVFKGFDALQYQEHLDYEIIQSLNPEFNKAVIRVNVFREHRQTIQYIHPADAVKLGQAELVVIDEAAAIPLPLVKSLLGPYLVFMASTINGYEGTGRSLSLKLIQQLRQQSAQSQVSTTAENKTTTTARLASARTLYEVSLQESIRYAPGDAVEKWLNDLLCLDCLNITRIVSGCPLPEACELYYVNRDTLFCYHKASEVFLQRLMALYVASHYKNSPNDLQMLSDAPAHHLFCLLPPVPPTQNALPEVLAVIQVCLEGEISRQSILNSLSRGKKASGDLIPWTVSEQFQDPDFGGLSGGRVVRIAVHPDYQGMGYGSRALQLLQMYYEGRFPCLEEKVLETPQEIHTVSSEAVSLLEEVITPRKDLPPLLLKLNERPAERLDYLGVSYGLTPRLLKFWKRAGFVPVYLRQTPNDLTGEHSCIMLKTLTDEDEADQGGWLAAFWKDFRRRFLALLSYQFSTFSPSLALNIIQNRNMGKPAQPALSREELEALFLPYDLKRLEMYSRNMVDYHLIMDMIPAISRIYFLNQLGDLALSAAQSALLLGIGLQHKSVDQLEKEIELPSGQLMGLFNRIIRKVVKLFNEVQEKAIEEQMVAAKDVVMEPTMKTLSDDLDEAAKEFQEKHKKEVGKLKSMDLSEYIIRGDDEEWNEVLNKAGPNASIISLKSDKKRKLEAKQEPKQSKKLKNRETKNKKDMKLKRKK

System: BAF complex subunits and histone proteins
Assay: Mass spectrometry proteomics of purified HA-SS18 WT and HA-SS18-SSX1 complexes (Tables 5A-5E)
Parameters: species or system human
Details: for Total / Unique: HA-SS18SSX1_CHR_peptides; for Total: total peptides of the identified protein; for Unique: unique peptides of the identified protein
[1] = HA-SS18WT_CHR_peptides: protein identified in HA-SS18 WT BAF complex purification from nuclease-treated solubilized chromatin (CHR), HEK-293T
[2] = HA-SS18SSX1_CHR_peptides: protein identified in the HA-SS18-SSX1 purification from solubilized chromatin (CHR), HEK-293T
[3] = HA-SS18SSX1 purification, NE (soluble nuclear extract) fraction, HEK-293T, peptides per identified protein
[4] = HA-SS18WT_CHR_peptides: HA-SS18 WT purification from nuclease-treated solubilized chromatin (CHR), HEK-293T, label = protein identified
[5] = HA-SS18WT_NE_peptides: HA-SS18 WT complexes purified from nuclear extract (NE), HEK-293T, label = protein identified (Gene Symbol)
[6] = HA-SS18SSX1_NE_peptides: protein co-purified with HA-SS18-SSX1 BAF complexes from soluble nuclear extract (NE), HEK-293T cells

Row | Molecule | Total | Unique | Total (total peptides) [1] | Unique (unique peptides) [1] | Total (total peptides) [2] | Unique (unique peptides) [2] | Total (total peptides) [3] | Unique (unique peptides) [3] | Total (peptides) [4] | Unique (peptides) [4] | Total (peptides) [5] | Unique (peptides) [5] | Total (peptides) [6] | Unique (peptides) [6]
1 | B1 | 4 | 4 | 1 | 1 |  |  |  |  |  |  |  |  |  | 
2 | B2 | 4 | 4 |  |  |  |  |  |  |  |  |  |  |  | 
3 | B3 |  |  |  |  | 4 | 4 | 7 | 7 | 5 | 5 | 5 | 5 |  | 
4 | B4 | 4 | 4 |  |  |  |  |  |  | 4 | 4 |  |  |  | 
5 | B5 | 1 | 1 | 1 | 1 | 51 | 33 |  |  | 17 | 16 | 3 | 3 | 2 | 2

From patent publication US20250283871A1, “COMPOSITIONS AND METHODS FOR MODULATING THE INTERACTION BETWEEN SS18-SSX FUSION ONCOPROTEIN AND NUCLEOSOMES” (Dana-Farber Cancer Institute, Inc., priority 2020, published 2025)
